According to publication PMC11472053, “Structural basis of DNA recognition by BEN domain proteins reveals a role for oligomerization in unmethylated DNA selection by BANP” (Nucleic Acids Research, 2024):
These are yes or no findings as the source states them, for the method shown. Some results given as binding are weak or reduced against the parent protein; the word gives no strength.

What was measured:
full-length BANP (human) = full-length BANP (human) (UniProt Q8N9N5); experiment: SEC; gel filtration profiles of purified BANP and its truncations, compared with ferritin (440 kDa) and aldolase (158 kDa); column and buffer of the analytical run not told; both purified
[1] = molecular target: BEN domain of BANP (human) (UniProt Q8N9N5); experiment: as above

binding (full-length BANP (human))	binding [1]	Binder
binds	–	full-length BANP (natural protein, human, UniProt Q8N9N5 1-519, looked up, BANP, human, full length; also called SMAR1; source: E. coli Rosetta (DE3), purified (nickel column, HiTrap Q, gel filtration)) MMSEHDLADVVQIAVEDLSPDHPVVLENHVVTDEDEPALKRQRLEINCQDPSIKTICLRLDSIEAKLQALEATCKSLEEKLDLVTNKQHSPIQVPMVAGSPLGATQTCNKVRCVVPQTTVILNNDRQNAIVAKMEDPLSNRAPDSLENVISNAVPGRRQNTIVVKVPGQEDSHHEDGESGSEASDSVSSCGQAGSQSIGSNVTLITLNSEEDYPNGTWLGDENNPEMRVRCAIIPSDMLHISTNCRTAEKMALTLLDYLFHREVQAVSNLSGQGKHGKKQLDPLTIYGIRCHLFYKFGITESDWYRIKQSIDSKCRTAWRRKQRGQSLAVKSFSRRTPNSSSYCPSEPMMSTPPPASELPQPQPQPQALHYALANAQQVQIHQIGEDGQVQVGHLHIAQVPQGEQVQITQDSEGNLQIHHVGQDGQLLEATRIPCLLAPSVFKASSGQVLQGAQLIAVASSDPAAAGVDGSPLQGSDIQVQYVQLAPVSDHTAGAQTAEALQPTLQPEMQLEHGAIQIQ
–	no binding	BEN domain of BANP (domain or fragment, UniProt Q8N9N5 205-325) ITLNSEEDYPNGTWLGDENNPEMRVRCAIIPSDMLHISTNCRTAEKMALTLLDYLFHREVQAVSNLSGQGKHGKKQLDPLTIYGIRCHLFYKFGITESDWYRIKQSIDSKCRTAWRRKQRG
